The list shows a part of the results. Shown are side measurements of this screen, not its main read-out; they come without a call. Compounds called inactive in the main read-out are mostly missing here. The note in brackets gives the kind of curve behind each potency; many fits are weak.
Test: qHTS Assay for Lipid Storage Modulators in Drosophila S3 Cells;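 on cell number change: cells counted by Cell Tracker Red CMTPX staining in the red channel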
Details: BODIPY lipid droplet fluorescence, 18-24 h; for cell number change: measured here: cell count max response, cells fed with added oleic acid
Procedure, shortened: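 Drosophila S3 cells got compounds at several concentrations plus oleic acid (400 uM solution). Laser-scanning cytometry with 488 nm excitation read lipid droplets at 500-530 nm and cells at 575-640 nm. Percent activity was relative to 20 uM Triacsin C.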

[1] = measured here: lipid fluorescence (Fed channel) AC50, cells fed with added oleic acid
[2] = measured here: cell number channel AC50, cells fed with added oleic acid

Compound | cell number change | AC50 [1] | AC50 [2]
O=C1C2CCCN2C(c2ccc(Br)cc2)N1c1ccc(F)cc1 (stereo unspecified) | 11.3% | – | –
CCN(CC)c1nc2c(c(=O)[nH]c(=O)n2C)n1CCCc1ccccc1 | -21.7% | 0.164 µM [rising, full curve, poor fit] | –
CN1C(=O)c2ccc(NC(=O)C3CCCCC3)cc2C1=O | 3.33% | 4.11 µM [rising, full curve] | –
COc1cc2cc(CCCOC(=O)c3ccc(F)cc3)oc(=O)c2cc1OC | -30.7% | 0.92 µM [falling, partial curve] | 2.59 µM [falling, single point]
CCCNC(=O)c1oc2ccc3c(c2c1C)C(=O)CC(C)(C)O3 | – | – | 0.58 µM [rising, full curve]
COc1ccccc1-n1c(SC)nc(O)cc1=O | 36.2% | – | 5.17 µM [rising, full curve, poor fit]
CC(=O)Nc1ccc(S(=O)(=O)Nc2ccccc2C(=O)N2CCCCC2)cc1 | -10.3% | 7.31 µM [falling, partial curve, poor fit] | –
Cc1ccccc1C(=O)OC1CCN(C)CC1 | 12.9% | 6.51 µM [falling, single point] | –
Cc1ccc(NC(=O)CN2C(=O)c3ccccc3S2(=O)=O)cc1C | -15.8% | – | –
NC(=S)c1cc2ccc(O)cc2oc1=O | 2% | 3.26 µM [falling, single point] | 0.00517 µM [falling, full curve, poor fit]
CN(CC(=O)Nc1ccccc1C(F)(F)F)C(=O)CCc1nc2ccccc2c(=O)[nH]1 | 35.8% | 0.461 µM [rising, full curve] | 0.517 µM [rising, full curve]
Cc1cccc(C)c1NC(=O)CSc1nnc(C)c(=O)[nH]1 | -6.34% | – | 0.58 µM [falling, single point]
O=[N+]([O-])c1cccc(-c2cn3nc(-c4ccccc4)c(-c4ccccc4)nc3n2)c1 | -40.6% | 5.8 µM [falling, full curve] | 4.61 µM [falling, full curve]
COc1ccc(C)cc1S(=O)(=O)N(CC(=O)O)c1ccc(F)cc1 | -4.35% | 0.461 µM [rising, full curve] | –
COc1ccccc1NS(=O)(=O)c1ccc(NC(=O)c2ccccn2)cc1 | 102% | – | 3.66 µM [rising, partial curve]
Cc1ccc(NC(=O)COC(=O)CNC(=O)c2ccc(C)s2)cc1 | -2.58% | – | –
Cc1cc(C)n(-c2cc(N3CCOCC3)nc(-c3ccccc3)n2)n1 | – | 6.51 µM [rising, single point] | –
C/C(=N\NC(=O)Cc1c[nH]c2ccccc12)c1ccc2ccccc2c1 | -6.33% | – | –
CN(CC(=O)NC1CCCCC1)S(=O)(=O)c1ccc2c(c1)c(=O)n(C)c(=O)n2C | 11.2% | 0.164 µM [rising, single point] | –
Cc1csc(NC(=O)Cn2cnnn2)n1 | 4.26% | 4.61 µM [rising, full curve] | –

Compound | cell number change | AC50 [1] | AC50 [2]
COC(=O)/C(=N/Nc1ccccc1C)Sc1nnc(C(O)c2ccccc2)n1-c1ccccc1 (stereo unspecified) | -0.746% | – | –
CN(C(=O)COC(=O)c1ccc(S(=O)(=O)N2CCCC2)cc1)c1ccccc1 | – | – | 0.58 µM [rising, single point]
OCCC1CN(CCCc2ccccc2)CCN1Cc1ccc(F)cc1 (stereo unspecified) | 21.3% | 23.1 µM [falling, single point] | –
CCOc1ccc(-c2cnc(NCc3cccc4ccccc34)n2CCOC)cc1 | -53.3% | 29.1 µM [falling, single point] | 14.6 µM [falling, partial curve, poor fit]
CCCCCn1c(-c2ccco2)nc2nc3ccccc3nc21 | -73.1% | 0.58 µM [rising, single point] | 18.4 µM [falling, single point]
OCCNCc1cccc(Br)c1 | -18.5% | – | –
CCCc1cc(=O)oc2c(C)c(OCC(=O)NCc3ccccn3)ccc12 | -42% | 16.4 µM [falling, partial curve] | 0.00731 µM [falling, full curve, poor fit]
Cc1ccc(C)c(OCC(=O)Nc2ccc(S(=O)(=O)Nc3onc(C)c3C)cc2)c1 | 10% | 6.51 µM [falling, single point] | –
Cc1onc(-c2ccccc2Cl)c1C(=O)NCC(=O)O | -2.73% | 4.61 µM [falling, single point] | –
CCCCNC(=O)c1ccc2c(=O)n(CCCOCC)c(=S)[nH]c2c1 | 36.8% | 1.64 µM [rising, full curve] | 0.82 µM [rising, full curve]
CC(=O)Nc1ccc(S(=O)(=O)NNc2cccc(C)c2)cc1 | 17.9% | 29.1 µM [rising, single point] | –
COC(=O)/C=C/c1cnc2ccccc2c1 | 1.03% | – | –
CC(C)(C#CC(O)(c1ccccc1)c1ccccc1)N1CCCC1 | -9.9% | – | –
Cc1ccc(NC(=O)/C(Cl)=C/c2ccccc2)cc1C | 21.8% | 11.6 µM [rising, partial curve] | –
COc1ccccc1C(=O)NCCC(=O)NC(C)c1ccc(-n2ccnc2)cc1 (stereo unspecified) | 94% | – | 9.2 µM [rising, partial curve]
Cc1cc(Cl)c2c(c1)[C@]1(C(=O)N2)[C@@H]2C(=O)N(Cc3ccccc3)C(=O)[C@@H]2[C@@H]2CCCN21 | 12.9% | – | 0.92 µM [rising, partial curve]
O=[N+]([O-])c1ccc(/C=N/Nc2nc(N3CCCC3)nc(N3CCCC3)n2)o1 | 39.6% | – | 32.6 µM [rising, single point]
CCOc1ccc2ccccc2c1/C=N/NC(=O)CC1(C)OCCCO1 | – | 1.46 µM [rising, partial curve] | 1.46 µM [rising, partial curve]
CCCCN(C(=O)C1=COCCO1)c1c(N)n(CCCC)c(=O)[nH]c1=O | -46.3% | 29.1 µM [falling, single point] | 11.6 µM [falling, partial curve, poor fit]

Grouped by structure: the compounds so far with a nitro group on carbon (2)
Compound | cell number change | AC50 [1] | AC50 [2]
O=[N+]([O-])c1cccc(-c2cn3nc(-c4ccccc4)c(-c4ccccc4)nc3n2)c1 | -40.6% | 5.8 µM [falling, full curve] | 4.61 µM [falling, full curve]
O=[N+]([O-])c1ccc(/C=N/Nc2nc(N3CCCC3)nc(N3CCCC3)n2)o1 | 39.6% | – | 32.6 µM [rising, single point]

Source: PubChem BioAssay AID2685 (National Center for Advancing Translational Sciences (NCATS), 2010)
